Measured values: the supplement of paper PMC10849652
Some of the results follow.

The chains behind the UniProt entries cited, without tags or fusion partners. Where a name states a change or a piece, a line headed by the entry shows the natural chain unless it says otherwise.
UniProt Q8N5I2: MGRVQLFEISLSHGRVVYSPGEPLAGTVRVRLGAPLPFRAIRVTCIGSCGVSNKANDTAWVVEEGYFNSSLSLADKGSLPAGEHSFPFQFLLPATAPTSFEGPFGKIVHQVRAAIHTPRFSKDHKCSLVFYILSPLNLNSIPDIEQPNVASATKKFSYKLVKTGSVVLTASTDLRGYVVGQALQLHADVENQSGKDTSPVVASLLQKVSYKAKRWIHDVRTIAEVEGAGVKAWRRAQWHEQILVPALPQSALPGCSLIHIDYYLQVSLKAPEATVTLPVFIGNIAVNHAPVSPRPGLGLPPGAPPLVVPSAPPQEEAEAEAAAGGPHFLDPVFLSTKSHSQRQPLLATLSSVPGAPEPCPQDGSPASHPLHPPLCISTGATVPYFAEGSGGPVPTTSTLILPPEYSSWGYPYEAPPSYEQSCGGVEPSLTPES
UniProt Q9NWL6: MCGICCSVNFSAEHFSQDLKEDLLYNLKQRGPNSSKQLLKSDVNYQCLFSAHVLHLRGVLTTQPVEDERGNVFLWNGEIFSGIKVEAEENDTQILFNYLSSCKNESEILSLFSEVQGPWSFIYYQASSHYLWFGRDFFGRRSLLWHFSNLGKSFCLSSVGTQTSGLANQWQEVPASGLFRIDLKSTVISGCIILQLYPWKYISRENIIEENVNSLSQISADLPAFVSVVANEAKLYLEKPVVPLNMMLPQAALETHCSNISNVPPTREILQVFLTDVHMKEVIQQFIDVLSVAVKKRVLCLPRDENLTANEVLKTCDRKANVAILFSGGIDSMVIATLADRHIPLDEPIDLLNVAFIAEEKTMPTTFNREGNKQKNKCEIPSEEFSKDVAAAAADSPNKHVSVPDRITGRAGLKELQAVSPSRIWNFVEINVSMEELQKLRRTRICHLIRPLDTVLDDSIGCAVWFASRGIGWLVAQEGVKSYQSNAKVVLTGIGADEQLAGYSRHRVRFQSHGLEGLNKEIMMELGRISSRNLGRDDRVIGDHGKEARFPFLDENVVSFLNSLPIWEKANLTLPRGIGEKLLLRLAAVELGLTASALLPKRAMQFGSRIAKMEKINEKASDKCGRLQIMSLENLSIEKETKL
UniProt P40617: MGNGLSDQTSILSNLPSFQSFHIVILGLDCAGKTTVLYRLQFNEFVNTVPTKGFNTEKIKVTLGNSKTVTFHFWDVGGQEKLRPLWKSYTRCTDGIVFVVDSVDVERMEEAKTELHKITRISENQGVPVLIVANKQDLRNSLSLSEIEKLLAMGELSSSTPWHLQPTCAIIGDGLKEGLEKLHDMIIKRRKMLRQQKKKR
UniProt Q9Y689: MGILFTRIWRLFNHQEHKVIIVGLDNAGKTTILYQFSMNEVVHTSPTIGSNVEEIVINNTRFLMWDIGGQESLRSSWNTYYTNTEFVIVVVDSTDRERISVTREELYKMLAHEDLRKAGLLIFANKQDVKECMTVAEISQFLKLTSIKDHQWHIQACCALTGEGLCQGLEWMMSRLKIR
UniProt Q8WYN0: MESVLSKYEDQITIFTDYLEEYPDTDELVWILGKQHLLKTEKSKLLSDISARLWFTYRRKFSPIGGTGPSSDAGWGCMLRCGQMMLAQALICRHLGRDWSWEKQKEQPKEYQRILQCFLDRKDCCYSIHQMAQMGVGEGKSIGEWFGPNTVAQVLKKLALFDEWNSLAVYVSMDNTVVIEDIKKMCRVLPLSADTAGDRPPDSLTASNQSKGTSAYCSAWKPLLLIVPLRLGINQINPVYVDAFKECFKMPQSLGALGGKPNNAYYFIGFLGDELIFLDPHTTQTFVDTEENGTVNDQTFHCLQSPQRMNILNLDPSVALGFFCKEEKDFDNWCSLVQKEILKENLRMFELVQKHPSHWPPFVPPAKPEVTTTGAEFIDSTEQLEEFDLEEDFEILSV
UniProt P54707, whole entry, looked up: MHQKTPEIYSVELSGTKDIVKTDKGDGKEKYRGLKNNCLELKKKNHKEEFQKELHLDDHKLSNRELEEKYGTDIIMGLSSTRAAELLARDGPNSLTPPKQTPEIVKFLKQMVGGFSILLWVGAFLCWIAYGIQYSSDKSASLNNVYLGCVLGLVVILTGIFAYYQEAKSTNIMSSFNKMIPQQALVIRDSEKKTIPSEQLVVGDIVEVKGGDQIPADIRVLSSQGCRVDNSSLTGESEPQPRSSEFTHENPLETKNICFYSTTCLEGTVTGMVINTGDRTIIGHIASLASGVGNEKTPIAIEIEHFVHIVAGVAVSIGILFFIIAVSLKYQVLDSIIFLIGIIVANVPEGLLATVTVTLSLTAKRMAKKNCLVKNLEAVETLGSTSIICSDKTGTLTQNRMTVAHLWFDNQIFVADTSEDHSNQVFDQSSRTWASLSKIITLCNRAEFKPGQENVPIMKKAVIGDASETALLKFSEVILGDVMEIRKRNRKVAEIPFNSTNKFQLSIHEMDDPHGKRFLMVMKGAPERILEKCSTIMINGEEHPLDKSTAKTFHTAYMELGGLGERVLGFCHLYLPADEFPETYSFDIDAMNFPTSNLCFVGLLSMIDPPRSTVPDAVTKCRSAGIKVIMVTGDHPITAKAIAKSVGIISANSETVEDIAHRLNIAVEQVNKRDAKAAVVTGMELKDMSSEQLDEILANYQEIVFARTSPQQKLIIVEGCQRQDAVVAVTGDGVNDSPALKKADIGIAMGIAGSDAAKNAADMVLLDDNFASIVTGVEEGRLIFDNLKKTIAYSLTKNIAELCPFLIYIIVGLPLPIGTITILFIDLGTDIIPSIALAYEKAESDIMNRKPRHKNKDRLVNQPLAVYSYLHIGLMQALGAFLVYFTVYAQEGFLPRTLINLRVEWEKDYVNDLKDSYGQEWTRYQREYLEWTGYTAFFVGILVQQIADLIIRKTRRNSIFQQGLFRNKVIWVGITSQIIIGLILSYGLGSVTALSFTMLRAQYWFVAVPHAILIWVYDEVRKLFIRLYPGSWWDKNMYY
UniProt P27449, whole entry, looked up: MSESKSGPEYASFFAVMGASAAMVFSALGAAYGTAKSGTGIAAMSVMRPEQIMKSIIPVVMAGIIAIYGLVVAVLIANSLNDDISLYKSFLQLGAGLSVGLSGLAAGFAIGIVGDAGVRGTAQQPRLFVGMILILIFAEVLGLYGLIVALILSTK
UniProt Q8IUR7, whole entry, looked up: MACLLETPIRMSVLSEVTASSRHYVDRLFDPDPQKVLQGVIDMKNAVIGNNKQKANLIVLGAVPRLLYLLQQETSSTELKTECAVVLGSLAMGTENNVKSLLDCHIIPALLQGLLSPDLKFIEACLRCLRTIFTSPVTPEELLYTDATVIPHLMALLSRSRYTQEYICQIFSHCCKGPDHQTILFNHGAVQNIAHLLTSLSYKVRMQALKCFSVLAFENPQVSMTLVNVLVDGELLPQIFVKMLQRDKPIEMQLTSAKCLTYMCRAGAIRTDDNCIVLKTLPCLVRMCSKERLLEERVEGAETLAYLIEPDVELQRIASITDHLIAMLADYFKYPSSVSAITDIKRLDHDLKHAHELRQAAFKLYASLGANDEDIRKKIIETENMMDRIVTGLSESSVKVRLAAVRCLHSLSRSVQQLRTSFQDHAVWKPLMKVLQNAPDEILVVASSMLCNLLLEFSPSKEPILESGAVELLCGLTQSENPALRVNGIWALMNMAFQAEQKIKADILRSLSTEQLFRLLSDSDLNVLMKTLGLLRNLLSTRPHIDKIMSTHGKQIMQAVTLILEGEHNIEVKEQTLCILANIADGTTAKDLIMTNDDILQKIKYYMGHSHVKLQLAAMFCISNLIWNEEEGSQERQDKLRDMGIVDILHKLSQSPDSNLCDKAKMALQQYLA
UniProt P98198: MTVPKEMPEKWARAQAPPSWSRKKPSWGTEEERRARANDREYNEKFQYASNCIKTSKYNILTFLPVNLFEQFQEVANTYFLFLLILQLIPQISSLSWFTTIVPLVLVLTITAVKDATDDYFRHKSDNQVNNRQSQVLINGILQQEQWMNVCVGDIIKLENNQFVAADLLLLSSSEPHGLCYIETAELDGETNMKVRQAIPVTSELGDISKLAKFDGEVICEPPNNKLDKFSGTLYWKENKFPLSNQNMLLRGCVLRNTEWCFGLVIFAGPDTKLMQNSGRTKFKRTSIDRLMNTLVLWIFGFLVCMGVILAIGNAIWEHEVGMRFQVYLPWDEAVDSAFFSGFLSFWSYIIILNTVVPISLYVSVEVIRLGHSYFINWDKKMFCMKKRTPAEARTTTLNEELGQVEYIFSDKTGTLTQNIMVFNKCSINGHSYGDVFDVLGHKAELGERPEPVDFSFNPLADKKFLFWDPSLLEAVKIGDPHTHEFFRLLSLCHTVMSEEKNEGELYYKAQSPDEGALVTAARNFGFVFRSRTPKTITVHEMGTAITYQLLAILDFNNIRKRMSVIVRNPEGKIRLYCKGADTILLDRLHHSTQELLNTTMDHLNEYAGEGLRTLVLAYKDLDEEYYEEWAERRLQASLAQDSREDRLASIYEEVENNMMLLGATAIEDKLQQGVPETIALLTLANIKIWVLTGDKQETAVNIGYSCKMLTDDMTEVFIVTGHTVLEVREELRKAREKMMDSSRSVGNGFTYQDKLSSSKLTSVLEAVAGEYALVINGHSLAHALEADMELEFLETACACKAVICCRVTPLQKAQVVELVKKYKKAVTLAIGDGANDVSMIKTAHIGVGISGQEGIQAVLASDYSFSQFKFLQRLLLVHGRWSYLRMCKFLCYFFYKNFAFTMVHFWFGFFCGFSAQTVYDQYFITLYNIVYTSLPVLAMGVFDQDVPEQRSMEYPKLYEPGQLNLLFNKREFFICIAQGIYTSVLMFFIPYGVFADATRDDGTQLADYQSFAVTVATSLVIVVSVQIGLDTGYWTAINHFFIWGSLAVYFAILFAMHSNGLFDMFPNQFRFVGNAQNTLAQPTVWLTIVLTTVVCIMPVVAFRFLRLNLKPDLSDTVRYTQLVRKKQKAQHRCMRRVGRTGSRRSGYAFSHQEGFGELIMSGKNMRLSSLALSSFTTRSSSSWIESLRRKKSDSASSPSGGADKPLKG
UniProt Q6P4H8: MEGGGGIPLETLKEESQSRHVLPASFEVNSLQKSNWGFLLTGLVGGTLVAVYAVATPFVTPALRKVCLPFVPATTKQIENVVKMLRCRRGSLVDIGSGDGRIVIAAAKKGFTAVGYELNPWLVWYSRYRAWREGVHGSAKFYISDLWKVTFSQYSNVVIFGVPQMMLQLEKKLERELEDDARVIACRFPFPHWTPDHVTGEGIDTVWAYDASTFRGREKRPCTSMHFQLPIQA
UniProt P20020: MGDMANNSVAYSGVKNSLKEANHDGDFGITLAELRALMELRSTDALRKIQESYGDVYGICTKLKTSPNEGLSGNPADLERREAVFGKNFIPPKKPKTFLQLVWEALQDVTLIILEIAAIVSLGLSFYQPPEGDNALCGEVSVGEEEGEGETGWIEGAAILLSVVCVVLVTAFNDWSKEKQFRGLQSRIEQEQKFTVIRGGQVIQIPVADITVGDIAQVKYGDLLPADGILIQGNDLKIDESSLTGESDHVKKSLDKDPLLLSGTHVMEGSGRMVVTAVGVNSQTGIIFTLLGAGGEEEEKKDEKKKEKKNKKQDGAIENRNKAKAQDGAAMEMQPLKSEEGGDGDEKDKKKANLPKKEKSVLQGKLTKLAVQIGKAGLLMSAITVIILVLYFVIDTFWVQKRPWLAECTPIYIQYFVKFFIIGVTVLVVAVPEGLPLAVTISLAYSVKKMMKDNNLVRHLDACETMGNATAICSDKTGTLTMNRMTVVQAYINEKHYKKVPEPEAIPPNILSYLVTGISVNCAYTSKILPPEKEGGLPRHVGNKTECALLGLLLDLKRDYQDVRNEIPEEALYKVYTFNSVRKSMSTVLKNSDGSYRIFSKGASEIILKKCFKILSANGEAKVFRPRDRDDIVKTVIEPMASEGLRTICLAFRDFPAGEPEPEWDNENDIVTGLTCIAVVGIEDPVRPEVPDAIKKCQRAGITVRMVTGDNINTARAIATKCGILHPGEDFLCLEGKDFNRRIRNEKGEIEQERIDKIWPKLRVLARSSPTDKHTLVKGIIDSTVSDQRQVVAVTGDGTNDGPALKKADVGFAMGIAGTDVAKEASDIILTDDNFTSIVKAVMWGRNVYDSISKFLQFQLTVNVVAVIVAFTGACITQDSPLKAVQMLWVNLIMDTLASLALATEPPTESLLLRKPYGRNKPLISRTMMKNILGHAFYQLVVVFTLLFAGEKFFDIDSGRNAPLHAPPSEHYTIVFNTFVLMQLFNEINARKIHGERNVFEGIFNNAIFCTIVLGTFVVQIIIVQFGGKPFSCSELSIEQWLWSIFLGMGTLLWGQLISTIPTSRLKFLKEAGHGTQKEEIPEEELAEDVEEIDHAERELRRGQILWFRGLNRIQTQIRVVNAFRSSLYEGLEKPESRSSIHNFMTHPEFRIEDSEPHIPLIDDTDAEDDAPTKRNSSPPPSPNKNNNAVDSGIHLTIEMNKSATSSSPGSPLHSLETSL
UniProt Q9NVP2, whole entry, looked up: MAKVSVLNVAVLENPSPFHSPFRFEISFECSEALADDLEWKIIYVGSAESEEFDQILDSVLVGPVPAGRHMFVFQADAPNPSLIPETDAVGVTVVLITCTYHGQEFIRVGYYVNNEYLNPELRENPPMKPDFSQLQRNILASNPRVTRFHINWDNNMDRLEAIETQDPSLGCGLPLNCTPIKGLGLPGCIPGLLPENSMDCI

Tests used:
Assay in all cases: log2 fold change, soluble protein after heating vs DMSO (PISA); higher = thermal stabilisation; K562 cells, 10 uM, 30 min; active = over 0.2 and 3.5 SD of the protein, either way, in both replicates (recomputed)
[1] = compound: NC(=O)Nc1cc(-c2cccc(F)c2)sc1C(=O)N[C@H]1CCCNC1
How it was run: (§1)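 Quantification of soluble protein used TMTpro 16plex LC-MS/MS, with channel sums equalised. Samples were the supernatant after 21,000xg for 90 min of pooled aliquots from K562 cells (2×10^6 cells/mL) treated with 10 μM compound for 30 min, heated for 3 min over 48°C-58°C, and extracted in PBS with 0.5% NP-40 at 4°C. Values, from duplicates, describe thermal stability against control samples on a log2 fold-change scale.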

[2] = compound: NC1(c2ccc(-c3nc4ccn5c(=O)[nH]nc5c4cc3-c3ccccc3)cc2)CCC1
How it was run: as §1

[3] = compound: NCC(=O)Nc1ccc(-n2nc(C(F)(F)F)cc2-c2ccc3c(ccc4ccccc43)c2)cc1
How it was run: as §1

[4] = compound: Nc1ccccc1NC(=O)c1ccc(CNC(=O)OCc2cccnc2)cc1 [entinostat]
How it was run: as §1

[5] = compound: O=C(CCCCCCC(=O)Nc1ccccc1)NO [vorinostat]
How it was run: as §1

[6] = compound: O=C(CCCCCCNC(=O)c1cnc(N(c2ccccc2)c2ccccc2Cl)nc1)NO [citarinostat]
How it was run: as §1

[7] = compound: O=C(O)c1ccc2c(c1)nc(Nc1cccc(Cl)c1)c1ccncc12 [silmitasertib]
How it was run: as §1

[8] = compound: O=C1NC(=O)C(c2cnc3ccccn23)=C1c1cn2c3c(cc(F)cc13)CN(C(=O)N1CCCCC1)CC2
How it was run: as §1

[9] = compound: c1cc(OCCN2CCCCC2)cc(-c2n[nH]c3ccc(-c4nnc[nH]4)cc23)c1
How it was run: as §1

[10] = compound: NC(=O)c1cnc(N[C@@H]2CCCC[C@@H]2N)nc1Nc1cccc(-n2nccn2)c1
How it was run: as §1

Measured: log2 fold change

ARRDC1 (UniProt Q8N5I2)
inactive: [1] 0.013 | [2] -0.06 | [3] 0.057 | [4] 0.075 | [5] -0.086 | [6] 0.056 | [7] 0.075 | [8] -0.008 | [9] -0.001

ATP2B2 (UniProt Q01814)
inactive: [1] -0.316 | [10] 0.247 | [3] 0.036 | [4] 0.175 | [5] -0.038

ASXL2 (UniProt Q76L83)
inactive: [10] 0.062

ATP2C1 isoform 3 (UniProt P98194)
inactive: [10] 0.061 | [2] -0.132 | [7] -0.035

ATG14 (UniProt Q6ZNE5)
inactive: [1] -0.078 | [10] 0.131 | [4] 0.046 | [6] 0.005 | [9] -0.071

ASNSD1 (UniProt Q9NWL6)
inactive: [1] 0.005 | [4] -0.052 | [8] 0.051

ATF7 isoform 6 (UniProt P17544)
inactive: [1] -0.113 | [10] 0.138 | [2] -0.123 | [3] 0.268 | [4] -0.045 | [7] 0.067 | [8] -0.044

ARL4A (UniProt P40617)
inactive: [10] -0.276 | [2] -0.117 | [7] 0.068

ATP5F1B (UniProt F8W0P7)
inactive: [1] -0.151 | [10] -0.187 | [2] -0.086 | [4] -0.119 | [7] -0.026 | [8] 0.155

ARSK (UniProt Q6UWY0)
inactive: [2] -0.168 | [3] 0.053 | [7] 0.078 | [8] 0.087

ARPC1A (UniProt Q92747)
inactive: [1] 0.031 | [10] -0.021 | [2] -0.012 | [3] -0.005 | [4] -0.03 | [5] -0.079 | [6] 0.015 | [7] 0.081 | [8] 0.064 | [9] 0.018

ARL5A (UniProt Q9Y689)
inactive: [1] -0.231 | [10] -0.091 | [2] -0.113 | [4] -0.048 | [5] 0.026 | [6] 0.155 | [7] -0.009 | [8] 0.038 | [9] -0.213

ATP13A1 (UniProt Q9HD20)
inactive: [1] -0.03 | [10] -0.02 | [2] -0.033 | [3] -0.065 | [4] 0.011 | [5] -0.009 | [6] 0.006 | [7] 0.008 | [8] -0.058 | [9] -0.023

ATE1 (UniProt O95260)
inactive: [10] -0.084 | [3] -0.066 | [6] -0.069 | [8] -0.148 | [9] 0.225

ATF6 (UniProt P18850)
inactive: [1] -0.075 | [4] -0.013

ASXL1 (UniProt Q8IXJ9)
inactive: [1] -0.031 | [2] 0.088 | [4] -0.072 | [6] -0.029 | [7] 0.006 | [8] 0.039 | [9] -0.316

ASCC2 (UniProt Q9H1I8)
inactive: [1] -0.12 | [2] 0.126 | [3] -0.171 | [4] 0.063 | [6] 0.028 | [7] 0.2 | [8] 0.107 | [9] 0.041

ATG4A (UniProt Q8WYN0)
inactive: [3] -0.058

ATP12A isoform 2 (UniProt P54707)
inactive: [1] -0.115 | [10] 0.049 | [2] 0.075 | [3] 0.003 | [4] -0.072 | [5] -0.035 | [6] -0.033 | [7] -0.033 | [8] -0.032 | [9] -0.037

ATP5F1B (UniProt H0YI37)
inactive: [1] -0.445 | [3] -0.252 | [4] -0.276 | [5] -0.031 | [6] -0.437 | [8] -0.28 | [9] -0.32

ATG2A (UniProt Q2TAZ0)
inactive: [5] 0.042 | [8] -0.092

ATP6V0C (UniProt P27449)
inactive: [1] 0.117 | [10] -0.174 | [2] -0.092 | [3] -0.038 | [4] 0.162 | [5] 0.205 | [7] -0.01 | [8] 0.308

ARL6 isoform 2 (UniProt Q9H0F7)
inactive: [3] -0.172

ATG10 (UniProt Q9H0Y0)
inactive: [3] -0.035 | [5] 0.042 | [8] -0.009

ARL5B (UniProt Q96KC2)
inactive: [1] -0.032 | [10] -0.151 | [2] -0.071 | [3] -0.064 | [4] -0.031 | [5] 0.182 | [7] -0.003 | [8] -0.184

ARMC8 isoform 6 (UniProt Q8IUR7)
inactive: [10] -0.023 | [3] 0.025

ATG3 (UniProt Q9NT62)
inactive: [1] -0.026 | [10] -0.019 | [2] -0.066 | [3] 0.021 | [4] -0.016 | [5] -0.006 | [6] 0.009 | [7] -0.017 | [8] -0.049 | [9] -0.015

ARMC1 (UniProt Q9NVT9)
inactive: [1] 0.017 | [10] -0.073 | [2] -0.144 | [3] -0.033 | [4] 0.038 | [5] 0.055 | [6] 0.101 | [7] 0.033 | [8] -0.062 | [9] 0.005

ATP8B2 isoform 3 (UniProt P98198)
inactive: [10] -0.004 | [3] -0.325

ATPSCKMT (UniProt Q6P4H8)
inactive: [1] 0.128 | [10] -0.028 | [2] -0.022 | [3] 0.016 | [4] 0.044 | [5] -0.093 | [6] -0.008 | [7] 0.068 | [8] 0 | [9] -0.061

ATF7IP isoform 4 (UniProt Q6VMQ6)
inactive: [10] -0.1 | [2] -0.282 | [3] -0.002 | [5] -0.07 | [7] 0 | [8] 0.136

ARRB1 isoform 2 (UniProt P49407)
inactive: [10] 0.068 | [2] 0.024 | [3] -0.079 | [5] -0.027 | [6] 0.007 | [7] 0.058 | [9] 0.008

Eight successive records already listed, quoted:
ARRDC1 (UniProt Q8N5I2)
inactive: [1] 0.013 | [2] -0.06 | [3] 0.057 | [4] 0.075 | [5] -0.086 | [6] 0.056 | [7] 0.075 | [8] -0.008 | [9] -0.001

ATP2B2 (UniProt Q01814)
inactive: [1] -0.316 | [10] 0.247 | [3] 0.036 | [4] 0.175 | [5] -0.038

ASXL2 (UniProt Q76L83)
inactive: [10] 0.062

ATP2C1 isoform 3 (UniProt P98194)
inactive: [10] 0.061 | [2] -0.132 | [7] -0.035

ATG14 (UniProt Q6ZNE5)
inactive: [1] -0.078 | [10] 0.131 | [4] 0.046 | [6] 0.005 | [9] -0.071

ASNSD1 (UniProt Q9NWL6)
inactive: [1] 0.005 | [4] -0.052 | [8] 0.051

ATF7 isoform 6 (UniProt P17544)
inactive: [1] -0.113 | [10] 0.138 | [2] -0.123 | [3] 0.268 | [4] -0.045 | [7] 0.067 | [8] -0.044

ARL4A (UniProt P40617)
inactive: [10] -0.276 | [2] -0.117 | [7] 0.068

Continued:

ATAD3B (UniProt Q5T9A4)
inactive: [1] 0.017 | [10] -0.029 | [2] -0.089 | [3] -0.088 | [4] 0.013 | [5] 0.108 | [6] -0.016 | [7] 0.005 | [8] 0.248 | [9] -0.104

ATG4C (UniProt Q96DT6)
inactive: [1] 0.01 | [2] -0.084 | [3] 0.03 | [4] 0.075 | [5] 0.159 | [6] -0.003 | [7] 0.157 | [8] -0.018 | [9] 0.224

ATP2B1 isoform 1 (UniProt P20020)
inactive: [1] -0.084 | [10] 0.058 | [2] 0.086 | [3] 0.02 | [4] -0.052 | [5] -0.031 | [6] 0.021 | [7] 0.008 | [8] -0.063 | [9] -0.013

ASF1B (UniProt Q9NVP2)
inactive: [1] -0.954 | [10] -0.174 | [2] -0.178 | [3] -0.078 | [4] 0.036 | [5] 0.002 | [7] -0.114 | [8] -0.18
